Measured values published in publication PMC9691727.
No constants are given. Whether binding was seen depends on the method and setting. In cells and extracts the contact can be indirect. Some binding calls cover weakened binding; strength is not graded here.

Amino acid sequences for entries named in this document (tags omitted).
UniProt P25490: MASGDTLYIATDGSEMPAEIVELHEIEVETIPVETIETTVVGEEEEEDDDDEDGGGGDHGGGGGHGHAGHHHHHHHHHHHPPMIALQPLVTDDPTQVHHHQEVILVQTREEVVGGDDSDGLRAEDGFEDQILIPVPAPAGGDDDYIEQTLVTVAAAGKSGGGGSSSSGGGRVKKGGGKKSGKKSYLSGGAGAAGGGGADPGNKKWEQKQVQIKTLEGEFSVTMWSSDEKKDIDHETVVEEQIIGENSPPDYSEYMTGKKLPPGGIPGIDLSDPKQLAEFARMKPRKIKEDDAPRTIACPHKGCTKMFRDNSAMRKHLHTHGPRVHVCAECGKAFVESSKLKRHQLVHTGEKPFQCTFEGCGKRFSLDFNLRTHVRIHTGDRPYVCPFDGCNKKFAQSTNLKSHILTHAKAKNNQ
UniProt O15379: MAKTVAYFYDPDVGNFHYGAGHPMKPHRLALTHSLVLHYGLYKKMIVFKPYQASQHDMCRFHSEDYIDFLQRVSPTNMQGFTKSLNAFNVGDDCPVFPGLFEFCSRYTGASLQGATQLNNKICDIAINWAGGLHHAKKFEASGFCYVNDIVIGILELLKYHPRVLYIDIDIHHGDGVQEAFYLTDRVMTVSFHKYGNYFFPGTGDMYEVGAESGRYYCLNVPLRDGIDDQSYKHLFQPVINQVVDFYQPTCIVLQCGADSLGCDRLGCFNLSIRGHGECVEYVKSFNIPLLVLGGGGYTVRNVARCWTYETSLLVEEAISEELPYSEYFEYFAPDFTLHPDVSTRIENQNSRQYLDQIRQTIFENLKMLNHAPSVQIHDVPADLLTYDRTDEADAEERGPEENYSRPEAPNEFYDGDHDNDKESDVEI
UniProt Q13547: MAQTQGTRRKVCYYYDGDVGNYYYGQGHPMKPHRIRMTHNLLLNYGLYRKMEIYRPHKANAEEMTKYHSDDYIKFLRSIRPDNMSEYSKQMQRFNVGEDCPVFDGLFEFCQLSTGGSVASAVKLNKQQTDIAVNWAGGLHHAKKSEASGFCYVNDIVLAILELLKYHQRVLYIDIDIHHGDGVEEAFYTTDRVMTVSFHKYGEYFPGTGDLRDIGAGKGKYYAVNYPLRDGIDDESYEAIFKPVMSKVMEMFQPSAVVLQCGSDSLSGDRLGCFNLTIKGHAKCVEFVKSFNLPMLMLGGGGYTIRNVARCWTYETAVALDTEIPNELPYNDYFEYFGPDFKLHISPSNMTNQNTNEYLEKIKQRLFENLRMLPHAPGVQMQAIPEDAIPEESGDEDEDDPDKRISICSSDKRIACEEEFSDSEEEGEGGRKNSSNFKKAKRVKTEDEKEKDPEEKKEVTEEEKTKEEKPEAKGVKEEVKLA

Assays:
[1] = biological target: YY1-EGFP (Yin Yang 1, wild type) (UniProt P25490); experiment: co-IP; YY1-EGFP or YY1-6R-EGFP cotransfected with HDAC1-HA or HDAC3-HA in HEK293T; lysed in IP buffer (10 mM Tris pH8.0, 150 mM NaCl, 1% NP-40, 1 mM EDTA, 10% glycerol); precipitated with anti-EGFP beads, blotted with anti-EGFP and anti-HA
HDAC3-HA = HDAC3-HA (UniProt O15379); experiment: co-IP; YY1-EGFP cotransfected with HDAC1-HA or HDAC3-HA in HEK293T; lysed in IP buffer (10 mM Tris pH8.0, 150 mM NaCl, 1% NP-40, 1 mM EDTA, 10% glycerol); precipitated with anti-HA beads, blotted with anti-HA and anti-EGFP
HDAC1-HA = HDAC1-HA (UniProt Q13547); experiment: as above

Row | binding [1] | binding (HDAC3-HA) | binding (HDAC1-HA) | Substance
1 | binds |  |  | HDAC1-HA (from UniProt Q13547 1-482)
2 |  | binds | binds | YY1-EGFP (Yin Yang 1, wild type) (from UniProt P25490 1-414)
3 | binds |  |  | HDAC3-HA (from UniProt O15379 1-428)
